Source: PubChem BioAssay AID652243 (Drosophila RNAi Screening Center, 2013)
The deposit covers about 24,000 reagents; below is a random part of those that have a named target and a result. Over the whole deposit, 246 (1%) are marked active. 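Plates not normalised; calls are printed but the firefly/Renilla ratio behind them is not deposited; fold cut for lowering reported inconsistently.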 The raw values are shown without normalisation. Reagents against one gene are numbered here. A plus sign joins genes that one reagent is predicted to hit. Not given: the amount of reagent.

Purpose: 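Knock-downs that decrease or increase androgen receptor reporter signal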 (primary screen)
Cells: Drosophila S2R+ cells
Reagent: long dsRNA against Drosophila genes
Time to read-out: 72 h (48 h, then 24 h hormone)
Conditions: synthetic androgen R1881 at 10 nM for 24 h
Measured: 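Per-well raw luminescence of the androgen-driven firefly reporter and of the Renilla control, two replicates each, without normalisation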
Reading the numbers: firefly reporter light: higher = more light from androgen-responsive reporter; Renilla control light: higher = more constitutive control signal (cell number, transfection)
Call rule: 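Hit when the log firefly-to-Renilla ratio dropped or increased by a fixed fold versus the mean of GFP or LacZ controls across duplicate plates; lowering cut given as 1.5 and as 3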
Meaning of the calls: active = hit: reporter lowered or raised; inactive = no hit

no.	predicted target	dsRNA no.	firefly reporter light, replicate 1	firefly reporter light, replicate 2	Renilla control light, replicate 1	Renilla control light, replicate 2	activity call
1	Cat (GeneID 40048)	1	2.52e5	2.19e5	1.82e6	2.16e6	inactive
2	Cat (GeneID 40048)	2	9.24e5	8.86e5	9.50e5	7.53e5	inactive
3	Cat (GeneID 40048)	3	1.11e6	1.01e6	1.69e6	1.86e6	inactive
4	slim (GeneID 37121)	1	1.12e6	1.10e6	2.37e6	1.81e6	inactive
5	Or85d (GeneID 41011)	1	91355	1.30e5	2.72e6	2.03e6	inactive
6	Or85d (GeneID 41011)	2	2.68e5	3.50e5	6.15e5	6.27e5	inactive
7	CG13295 (GeneID 38692)	1	88906	1.73e5	1.13e6	1.75e6	inactive
8	Dyrk2 (GeneID 34831)	1	8.37e5	9.18e5	1.63e6	1.73e6	inactive
9	Dyrk2 (GeneID 34831)	2	2.06e5	2.43e5	6.02e5	3.80e5	inactive
10	Dyrk2 (GeneID 34831)	3					inactive
11	CG2765 (GeneID 37994)	1	9.21e5	1.09e6	1.26e6	1.81e6	inactive
12	TbCMF46 (GeneID 34318)	1	1.33e5	96674	8.02e5	7.40e5	inactive
13	TbCMF46 (GeneID 34318)	2					inactive
14	CG13217 (GeneID 36180)	1	3.52e5	3.05e5	1.90e6	2.08e6	inactive
15	CG11699 (GeneID 32101)	1	6.83e5	5.85e5	2.74e6	2.48e6	inactive
16	CG11699 (GeneID 32101)	2	1.58e5	1.97e5	3.91e5	5.18e5	inactive
17	Jhe (GeneID 36780)	1	50415	50987	1.11e6	1.11e6	inactive
18	Jhe (GeneID 36780)	2	9.46e5	8.68e5	1.36e6	1.49e6	inactive
19	Pgant2 (GeneID 33556)	1	2.20e5	1.31e5	1.32e6	8.99e5	inactive
20	CG3342 (GeneID 31586)	1	92134	82388	7.84e5	4.67e5	inactive
21	CG3342 (GeneID 31586)	2	7.31e5	4.47e5	1.18e6	1.08e6	inactive
22	eRF1 (GeneID 40240)	1	35637	31541	3.84e5	2.44e5	inactive
23	eRF1 (GeneID 40240)	2	8.00e5	4.67e5	3.24e6	1.81e6	inactive
24	tey (GeneID 40146)	1	3.94e5	4.12e5	2.22e6	2.17e6	inactive
25	tey (GeneID 40146)	2	6.40e5	6.73e5	1.89e6	1.27e6	inactive
26	tey (GeneID 40146)	3	3.30e5	3.44e5	8.61e5	5.60e5	inactive
27	CG16790 (GeneID 41155)	1	1.10e5	1.43e5	1.49e6	1.13e6	inactive
28	La (GeneID 35305)	1	78649	1.18e5	1.15e6	8.56e5	inactive

4 entries from above, reduced to “Renilla control light, replicate 2”.
eRF1 (GeneID 40240) #2 = 1.81e6
tey (GeneID 40146) #1 = 2.17e6
tey (GeneID 40146) #2 = 1.27e6
tey (GeneID 40146) #3 = 5.60e5

The list goes on.
no.	predicted target	dsRNA no.	firefly reporter light, replicate 1	firefly reporter light, replicate 2	Renilla control light, replicate 1	Renilla control light, replicate 2	activity call
29	CG6833 (GeneID 39559)	1	4.42e5	4.15e5	1.26e6	1.43e6	inactive
30	CG6833 (GeneID 39559)	2	7.81e5	9.91e5	9.30e5	9.87e5	inactive
31	Fer1HCH (GeneID 46415)	1	1.01e5	1.18e5	1.04e6	7.81e5	inactive
32	Fer1HCH (GeneID 46415)	2	7.68e5	7.57e5	1.66e6	1.40e6	inactive
33	piwi (GeneID 34521)	1	9.07e5	7.36e5	1.23e6	1.32e6	inactive
34	CG4757 (GeneID 41330)	1	1.67e5	1.76e5	1.98e6	2.25e6	inactive
35	Scgalpha (GeneID 34135)	1	1.91e5	1.92e5	1.71e6	1.85e6	inactive
36	Scgalpha (GeneID 34135)	2	4.45e5	5.95e5	8.34e5	8.34e5	inactive
37	tobi (GeneID 43072)	1	2.13e5	1.69e5	3.02e6	2.17e6	inactive
38	CG30281 (GeneID 246525)	1	1.13e6	5.02e5	1.54e6	9.06e5	inactive
39	CG30281 (GeneID 246525)	2	3.26e5	3.82e5	5.78e5	4.97e5	inactive
40	CG14259 (GeneID 43261)	1	1.37e5	1.97e5	1.73e6	1.99e6	inactive
41	inc (GeneID 31110)	1	3.02e5	2.67e5	3.06e6	2.68e6	inactive
42	inc (GeneID 31110)	2	5.09e5	5.32e5	1.45e6	1.31e6	inactive
43	inc (GeneID 31110)	3	3.77e5	1.97e5	1.15e6	7.73e5	inactive
44	CG11145 (GeneID 35663)	1	3.46e5	2.64e5	2.28e6	1.24e6	inactive
45	CG9084 (GeneID 36172)	1	2.18e5	1.92e5	1.02e6	8.78e5	inactive
46	Cdk2 (GeneID 42453)	1	1.19e5	77627	8.47e5	8.93e5	inactive
47	Cdk2 (GeneID 42453)	2					active
48	ND-B12 (GeneID 37466)	1	1.55e5	1.22e5	1.19e6	1.02e6	inactive
49	CG34129 (GeneID 43181)	1	2.24e5	2.72e5	3.07e6	2.97e6	inactive
50	Dbp80 (GeneID 3354919)	1	6.51e5	5.80e5	2.24e6	2.11e6	inactive
51	CG14538 (retired record) (GeneID 34056)	1	2.11e5	1.86e5	2.05e6	2.37e6	inactive
52	CG14538 (retired record) (GeneID 34056)	2	5.11e5	5.13e5	1.40e6	1.40e6	inactive
53	CG15237 (GeneID 35591)	1	2.54e5	2.27e5	2.20e6	1.68e6	inactive
54	fd3F + CR42499	1	2.18e5	3.18e5	2.47e6	3.03e6	inactive
55	fd3F + CR42499	2	91988	99070	1.26e6	1.65e6	inactive
56	fd3F + CR42499	3	4.36e5	6.78e5	8.58e5	1.26e6	inactive
57	CG13001 (GeneID 32684)	1	8.16e5	1.07e6	1.02e6	1.24e6	inactive
58	ATPsyngamma (GeneID 43507)	1	1.12e5	1.07e5	1.15e6	1.23e6	inactive
59	Reck (GeneID 39629)	1	8.15e5	4.00e5	1.72e6	1.54e6	inactive
60	Reck (GeneID 39629)	2	2.18e5	1.98e5	2.21e6	1.90e6	inactive
61	CG11670 (GeneID 41608)	1	68712	55646	9.86e5	9.85e5	inactive
62	CR41501 (GeneID 5740839)	1	8.03e5	7.88e5	2.18e6	1.85e6	inactive
63	CG5521 (GeneID 43242)	1	2.43e5	2.27e5	2.28e6	2.57e6	inactive
64	CG5521 (GeneID 43242)	2	5.59e5	6.71e5	1.10e6	1.07e6	inactive
65	CG1544 (GeneID 43689)	1	73013	53092	5.77e5	3.95e5	inactive
66	CG9030 (GeneID 32427)	1	4.83e5	5.44e5	2.66e6	3.21e6	inactive
67	Rubicon (GeneID 31803)	1	2.35e5	2.98e5	2.29e6	2.84e6	inactive
68	Rubicon (GeneID 31803)	2	2.04e5	2.31e5	7.79e5	7.79e5	inactive
69	lola (GeneID 44548)	1	55281	80629	1.72e5	24313	inactive
70	lola (GeneID 44548)	2	3.49e5	3.05e5	3.25e5	20970	inactive
71	lola (GeneID 44548)	3	1.08e5	1.52e5	1.66e5	1.53e5	inactive
72	lola (GeneID 44548)	4	42034	23650	1.21e5	1.60e5	inactive
73	lola (GeneID 44548)	5	1.16e5	1.20e5	4.79e5	2.39e5	inactive
74	lola (GeneID 44548)	6	4.23e5	3.51e5	5.34e5	6.13e5	inactive
75	lola (GeneID 44548)	7	9.97e5	1.19e6	1.06e6	1.20e6	inactive
76	lola (GeneID 44548)	8	3.30e5	1.43e5	1.37e6	1.08e6	inactive
77	lola (GeneID 44548)	9	1.02e6	9.93e5	1.15e6	1.01e6	inactive
78	lola (GeneID 44548)	10	5.41e5	3.59e5	1.85e6	1.73e6	inactive
79	lola (GeneID 44548)	11	6.04e5	4.59e5	1.95e6	1.24e6	inactive
